In the supplement of paper PMC10849652:
Some of the results follow.

The chains behind the UniProt entries cited, without tags or fusion partners. Where a name states a change or a piece, a line headed by the entry shows the natural chain unless it says otherwise.
UniProt Q96Q07: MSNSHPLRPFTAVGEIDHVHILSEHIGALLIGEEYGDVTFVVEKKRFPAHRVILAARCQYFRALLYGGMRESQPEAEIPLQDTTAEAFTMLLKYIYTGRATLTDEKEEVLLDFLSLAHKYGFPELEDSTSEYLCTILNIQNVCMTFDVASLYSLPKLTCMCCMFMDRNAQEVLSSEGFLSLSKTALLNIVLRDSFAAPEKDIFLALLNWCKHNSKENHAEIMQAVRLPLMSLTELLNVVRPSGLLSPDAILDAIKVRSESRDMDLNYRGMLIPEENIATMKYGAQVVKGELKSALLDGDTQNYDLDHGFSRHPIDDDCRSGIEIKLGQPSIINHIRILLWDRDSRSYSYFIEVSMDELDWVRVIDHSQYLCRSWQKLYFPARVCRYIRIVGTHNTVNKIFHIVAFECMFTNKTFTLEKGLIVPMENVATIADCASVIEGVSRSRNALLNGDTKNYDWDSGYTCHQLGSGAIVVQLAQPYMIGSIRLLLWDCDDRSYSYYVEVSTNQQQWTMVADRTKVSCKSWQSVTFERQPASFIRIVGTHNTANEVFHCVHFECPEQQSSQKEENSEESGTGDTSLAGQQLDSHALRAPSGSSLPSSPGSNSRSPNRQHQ
UniProt Q96DR5: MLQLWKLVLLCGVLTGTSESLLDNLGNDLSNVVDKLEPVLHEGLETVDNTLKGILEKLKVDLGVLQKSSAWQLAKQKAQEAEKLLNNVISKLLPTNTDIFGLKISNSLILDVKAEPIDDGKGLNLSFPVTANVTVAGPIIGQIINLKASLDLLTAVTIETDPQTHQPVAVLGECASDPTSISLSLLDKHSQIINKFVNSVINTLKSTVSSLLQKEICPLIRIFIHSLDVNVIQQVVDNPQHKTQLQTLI
UniProt Q8TDL5: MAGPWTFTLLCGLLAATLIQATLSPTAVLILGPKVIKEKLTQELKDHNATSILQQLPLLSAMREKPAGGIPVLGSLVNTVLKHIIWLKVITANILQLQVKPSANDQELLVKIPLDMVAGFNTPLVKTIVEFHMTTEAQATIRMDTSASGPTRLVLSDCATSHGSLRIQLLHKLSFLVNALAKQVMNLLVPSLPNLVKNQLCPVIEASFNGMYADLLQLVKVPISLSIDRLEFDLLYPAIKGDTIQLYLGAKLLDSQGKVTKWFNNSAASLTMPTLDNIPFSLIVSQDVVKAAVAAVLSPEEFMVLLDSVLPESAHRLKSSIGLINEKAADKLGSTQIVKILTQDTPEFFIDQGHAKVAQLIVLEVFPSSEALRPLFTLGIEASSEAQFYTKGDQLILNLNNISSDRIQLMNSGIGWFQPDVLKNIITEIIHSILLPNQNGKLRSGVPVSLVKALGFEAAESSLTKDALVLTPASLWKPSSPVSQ
UniProt P10415, whole entry, looked up: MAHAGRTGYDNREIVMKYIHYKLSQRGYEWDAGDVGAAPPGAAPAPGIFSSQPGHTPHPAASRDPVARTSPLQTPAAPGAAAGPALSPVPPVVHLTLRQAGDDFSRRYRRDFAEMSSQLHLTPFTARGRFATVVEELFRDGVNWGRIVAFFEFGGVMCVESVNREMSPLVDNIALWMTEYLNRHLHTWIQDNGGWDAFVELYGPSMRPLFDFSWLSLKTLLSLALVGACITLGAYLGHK
UniProt Q9UIF9: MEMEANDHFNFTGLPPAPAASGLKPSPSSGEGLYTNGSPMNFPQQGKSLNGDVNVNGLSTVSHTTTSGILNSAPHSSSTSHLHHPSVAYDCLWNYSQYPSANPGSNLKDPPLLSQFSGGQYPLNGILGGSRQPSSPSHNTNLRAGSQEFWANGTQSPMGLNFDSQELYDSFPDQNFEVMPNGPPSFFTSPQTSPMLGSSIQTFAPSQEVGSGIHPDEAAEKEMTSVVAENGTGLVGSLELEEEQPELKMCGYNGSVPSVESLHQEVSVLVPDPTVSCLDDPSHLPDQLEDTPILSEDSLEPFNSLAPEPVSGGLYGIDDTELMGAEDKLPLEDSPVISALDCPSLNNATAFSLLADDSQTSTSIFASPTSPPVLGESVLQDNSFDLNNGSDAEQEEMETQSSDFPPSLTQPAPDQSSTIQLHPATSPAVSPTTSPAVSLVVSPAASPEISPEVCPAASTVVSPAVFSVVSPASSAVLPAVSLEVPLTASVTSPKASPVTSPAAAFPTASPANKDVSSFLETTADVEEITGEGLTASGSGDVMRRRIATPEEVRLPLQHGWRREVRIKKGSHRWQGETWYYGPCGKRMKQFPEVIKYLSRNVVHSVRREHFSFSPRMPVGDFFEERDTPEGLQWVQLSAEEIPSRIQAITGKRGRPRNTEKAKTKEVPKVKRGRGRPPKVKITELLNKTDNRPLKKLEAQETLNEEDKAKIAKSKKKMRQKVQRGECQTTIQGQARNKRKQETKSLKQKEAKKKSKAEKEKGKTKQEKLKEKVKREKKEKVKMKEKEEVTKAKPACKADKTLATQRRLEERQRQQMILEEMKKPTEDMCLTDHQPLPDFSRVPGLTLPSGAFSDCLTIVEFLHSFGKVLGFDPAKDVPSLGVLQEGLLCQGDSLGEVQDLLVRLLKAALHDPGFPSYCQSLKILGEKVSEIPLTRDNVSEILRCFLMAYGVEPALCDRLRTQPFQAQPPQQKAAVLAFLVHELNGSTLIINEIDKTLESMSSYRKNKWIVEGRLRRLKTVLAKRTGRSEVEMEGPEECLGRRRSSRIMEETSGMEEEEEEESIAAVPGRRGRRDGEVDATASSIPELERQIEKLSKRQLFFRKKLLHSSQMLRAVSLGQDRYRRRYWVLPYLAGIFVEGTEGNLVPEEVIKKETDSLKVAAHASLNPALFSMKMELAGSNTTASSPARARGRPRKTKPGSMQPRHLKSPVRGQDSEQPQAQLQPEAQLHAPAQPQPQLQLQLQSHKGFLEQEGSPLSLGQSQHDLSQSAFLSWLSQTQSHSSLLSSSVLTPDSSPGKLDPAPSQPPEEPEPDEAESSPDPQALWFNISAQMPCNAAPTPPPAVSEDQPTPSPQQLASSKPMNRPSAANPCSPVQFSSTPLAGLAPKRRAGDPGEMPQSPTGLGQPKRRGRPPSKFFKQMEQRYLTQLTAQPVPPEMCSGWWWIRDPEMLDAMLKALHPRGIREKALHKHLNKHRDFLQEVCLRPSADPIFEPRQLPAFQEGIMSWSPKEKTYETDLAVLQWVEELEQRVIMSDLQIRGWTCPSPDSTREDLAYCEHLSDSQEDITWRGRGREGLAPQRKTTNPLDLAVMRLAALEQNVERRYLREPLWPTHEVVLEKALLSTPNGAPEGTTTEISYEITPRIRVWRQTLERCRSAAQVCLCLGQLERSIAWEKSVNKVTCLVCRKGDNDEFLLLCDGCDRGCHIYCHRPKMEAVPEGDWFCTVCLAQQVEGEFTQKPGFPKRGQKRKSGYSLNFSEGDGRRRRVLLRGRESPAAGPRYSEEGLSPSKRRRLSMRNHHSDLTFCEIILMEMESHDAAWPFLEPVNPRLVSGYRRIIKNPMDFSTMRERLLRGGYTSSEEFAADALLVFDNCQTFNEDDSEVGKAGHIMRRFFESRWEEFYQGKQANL
UniProt Q9UQB8: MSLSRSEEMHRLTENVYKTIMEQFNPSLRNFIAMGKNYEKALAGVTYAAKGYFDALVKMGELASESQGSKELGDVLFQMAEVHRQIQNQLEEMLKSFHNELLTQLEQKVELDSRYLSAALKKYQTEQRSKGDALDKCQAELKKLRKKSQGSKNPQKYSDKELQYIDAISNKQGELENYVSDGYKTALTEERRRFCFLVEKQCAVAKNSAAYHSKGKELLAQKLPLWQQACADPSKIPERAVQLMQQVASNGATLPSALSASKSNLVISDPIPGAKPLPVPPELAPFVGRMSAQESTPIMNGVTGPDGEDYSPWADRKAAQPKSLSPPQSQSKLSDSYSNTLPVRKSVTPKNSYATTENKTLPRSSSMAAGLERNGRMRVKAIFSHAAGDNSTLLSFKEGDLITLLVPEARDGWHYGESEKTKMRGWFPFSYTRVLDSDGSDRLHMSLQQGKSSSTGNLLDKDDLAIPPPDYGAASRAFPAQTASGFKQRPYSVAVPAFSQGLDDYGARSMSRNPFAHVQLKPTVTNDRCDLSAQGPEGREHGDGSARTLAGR
UniProt P62324: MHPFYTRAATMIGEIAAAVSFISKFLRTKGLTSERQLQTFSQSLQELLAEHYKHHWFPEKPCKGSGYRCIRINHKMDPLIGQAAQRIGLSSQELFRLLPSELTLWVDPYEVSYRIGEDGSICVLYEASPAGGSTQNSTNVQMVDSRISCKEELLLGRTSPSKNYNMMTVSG
UniProt Q9BSF8: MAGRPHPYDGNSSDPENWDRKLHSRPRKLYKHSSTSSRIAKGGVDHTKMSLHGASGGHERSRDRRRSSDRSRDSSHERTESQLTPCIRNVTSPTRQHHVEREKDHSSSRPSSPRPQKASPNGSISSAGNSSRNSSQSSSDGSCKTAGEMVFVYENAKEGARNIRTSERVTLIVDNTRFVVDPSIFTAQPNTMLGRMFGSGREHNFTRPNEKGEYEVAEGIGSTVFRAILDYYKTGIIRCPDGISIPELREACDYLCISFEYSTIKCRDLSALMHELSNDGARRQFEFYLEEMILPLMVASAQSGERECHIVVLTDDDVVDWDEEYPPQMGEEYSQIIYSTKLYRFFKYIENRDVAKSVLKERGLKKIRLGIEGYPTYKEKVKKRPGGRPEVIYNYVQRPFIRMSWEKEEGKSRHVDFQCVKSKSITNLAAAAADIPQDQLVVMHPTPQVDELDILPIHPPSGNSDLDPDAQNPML
UniProt Q8TBE0: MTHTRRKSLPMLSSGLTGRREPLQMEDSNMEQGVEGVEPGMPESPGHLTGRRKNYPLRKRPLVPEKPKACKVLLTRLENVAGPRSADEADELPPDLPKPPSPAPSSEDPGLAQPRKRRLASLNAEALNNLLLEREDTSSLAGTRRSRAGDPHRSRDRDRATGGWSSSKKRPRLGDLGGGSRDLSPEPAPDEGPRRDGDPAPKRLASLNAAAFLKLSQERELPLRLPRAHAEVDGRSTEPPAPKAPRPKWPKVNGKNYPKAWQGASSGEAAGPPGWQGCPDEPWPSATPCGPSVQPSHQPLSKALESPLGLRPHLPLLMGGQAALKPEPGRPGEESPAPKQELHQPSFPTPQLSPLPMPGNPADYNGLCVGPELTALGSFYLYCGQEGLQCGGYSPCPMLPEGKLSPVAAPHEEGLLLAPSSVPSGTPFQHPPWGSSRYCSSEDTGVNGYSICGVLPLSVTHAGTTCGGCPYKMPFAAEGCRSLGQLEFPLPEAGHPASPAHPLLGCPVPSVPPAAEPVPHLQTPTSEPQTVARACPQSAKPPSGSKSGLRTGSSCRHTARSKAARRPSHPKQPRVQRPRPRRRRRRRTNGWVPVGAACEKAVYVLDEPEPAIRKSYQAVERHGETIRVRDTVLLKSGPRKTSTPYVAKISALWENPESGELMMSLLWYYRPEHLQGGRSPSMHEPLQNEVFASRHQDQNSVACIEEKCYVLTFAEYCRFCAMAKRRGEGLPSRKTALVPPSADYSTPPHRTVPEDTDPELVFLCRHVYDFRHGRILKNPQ
UniProt Q1RMZ1: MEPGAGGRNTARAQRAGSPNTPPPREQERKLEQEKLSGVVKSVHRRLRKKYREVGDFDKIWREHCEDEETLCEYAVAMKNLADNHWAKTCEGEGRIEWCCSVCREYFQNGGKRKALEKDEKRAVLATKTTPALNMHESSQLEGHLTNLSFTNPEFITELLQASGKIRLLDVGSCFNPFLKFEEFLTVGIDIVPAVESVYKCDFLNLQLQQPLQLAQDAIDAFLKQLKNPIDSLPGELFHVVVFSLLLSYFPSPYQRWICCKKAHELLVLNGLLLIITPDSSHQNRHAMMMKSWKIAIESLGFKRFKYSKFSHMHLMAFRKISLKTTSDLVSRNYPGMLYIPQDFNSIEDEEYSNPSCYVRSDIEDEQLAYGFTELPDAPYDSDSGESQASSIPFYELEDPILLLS
UniProt Q8N9N5: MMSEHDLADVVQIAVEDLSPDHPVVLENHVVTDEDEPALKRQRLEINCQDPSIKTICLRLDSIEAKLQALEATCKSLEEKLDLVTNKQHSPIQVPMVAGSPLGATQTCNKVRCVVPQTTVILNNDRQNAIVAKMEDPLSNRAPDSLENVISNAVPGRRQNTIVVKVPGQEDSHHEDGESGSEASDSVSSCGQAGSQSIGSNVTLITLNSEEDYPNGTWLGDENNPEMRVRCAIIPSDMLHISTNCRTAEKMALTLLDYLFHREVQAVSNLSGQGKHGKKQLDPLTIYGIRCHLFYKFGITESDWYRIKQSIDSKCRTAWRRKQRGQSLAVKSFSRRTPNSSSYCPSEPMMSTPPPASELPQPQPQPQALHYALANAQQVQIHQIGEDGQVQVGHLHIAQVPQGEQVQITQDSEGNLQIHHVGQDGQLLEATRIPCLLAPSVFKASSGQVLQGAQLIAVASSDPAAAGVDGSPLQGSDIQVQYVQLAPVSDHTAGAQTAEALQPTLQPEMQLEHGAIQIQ

Assays:
Assay in all cases: log2 fold change, soluble protein after heating vs DMSO (PISA); higher = thermal stabilisation; K562 lysate, 10 uM; active = over 0.2 and 3.5 SD of the protein, either way, in both replicates (recomputed)
[1] = compound: CC[C@@H]1C(=O)N(C)c2cnc(Nc3ccc(C(=O)NC4CCN(C)CC4)cc3OC)nc2N1C1CCCC1
Procedure, shortened: (§1)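 Thermal stability, expressed as log-two fold change relative to solvent controls, is given from duplicates. Crude K562 extract in PBS pH 7.4 with 1 mM MgCl2, at 1 mg/mL protein, was treated with 10 μM compound for 30 min and heated in aliquots for 3 min across 48°C-58°C. After pooling, adjustment to 0.5% NP-40 at 4°C and centrifugation at 21,000xg for 90 min, supernatant protein was measured by TMTpro 16plex LC-MS/MS with channel sums equalised.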

saracatinib = compound: CN1CCN(CCOc2cc(OC3CCOCC3)c3c(Nc4c(Cl)ccc5c4OCO5)ncnc3c2)CC1 [saracatinib]
Procedure, shortened: as §1

sotrastaurin = compound: CN1CCN(c2nc(C3=C(c4c[nH]c5ccccc45)C(=O)NC3=O)c3ccccc3n2)CC1 [sotrastaurin]
Procedure, shortened: as §1

[2] = compound: CNC(=O)C1=CC=CC=C1NC2=NC(=NC=C2Cl)NC3=C(C=C(C=C3)N4CCOCC4)OC
Procedure, shortened: as §1

[3] = compound: CNc1nc(-c2ccc3c(N)n[nH]c3c2)cc(N2C[C@@H](C(=O)NC3CCCCC3)CC[C@H]2C)n1
Procedure, shortened: as §1

encorafenib = compound: COC(=O)N[C@@H](C)CNc1nccc(-c2cn(C(C)C)nc2-c2cc(Cl)cc(NS(C)(=O)=O)c2F)n1 [encorafenib]
Procedure, shortened: as §1

[4] = compound: COC(=O)[C@H](CCSC)NC(=O)C1=C(C=C(C=C1)NC[C@H](CS)N)C2=CC=CC=C2
Procedure, shortened: as §1

alisertib = compound: COc1cc(Nc2ncc3c(n2)-c2ccc(Cl)cc2C(c2c(F)cccc2OC)=NC3)ccc1C(=O)O [alisertib]
Procedure, shortened: as §1

gefitinib = compound: COc1cc2ncnc(Nc3ccc(F)c(Cl)c3)c2cc1OCCCN1CCOCC1 [gefitinib]
Procedure, shortened: as §1

[5] = compound: CCCS(=O)(=O)Nc1ccc(F)c(C(=O)c2c[nH]c3ncc(Cl)cc23)c1F
Procedure, shortened: as §1

volasertib = compound: CC[C@@H]1C(=O)N(C)c2cnc(Nc3ccc(C(=O)N[C@H]4CC[C@H](N5CCN(CC6CC6)CC5)CC4)cc3OC)nc2N1C(C)C [volasertib]
Procedure, shortened: as §1

[6] = compound: COc1cc2nc(-c3cc(F)ccc3O)nc(N[C@@H]3CNC[C@H]3C(C)(C)O)c2cc1OC
Procedure, shortened: as §1

barasertib = compound: CCN(CCCOc1ccc2c(Nc3cc(CC(=O)Nc4cccc(F)c4)[nH]n3)ncnc2c1)CCOP(=O)(O)O [barasertib]
Procedure, shortened: as §1

[7] = compound: CCn1cc(-c2ccnc3[nH]c(-c4cccc(CN(C)C)c4)cc23)c(-c2ccc(NC(=O)N(C)C)cc2)n1
Procedure, shortened: as §1

[8] = compound: CN1CCC(CNc2ccc3ncc(-c4cccc(OC(F)(F)F)c4)n3n2)CC1
Procedure, shortened: as §1

alvocidib = compound: CN1CC[C@H](c2c(O)cc(O)c3c(=O)cc(-c4ccccc4Cl)oc23)[C@H](O)C1 [alvocidib]
Procedure, shortened: as §1

[9] = compound: CCn1c(C(=O)N(C2CC2)C2CC2)cc2c3c(ncn3C)c(Nc3cc(C)n(C)n3)nc21
Procedure, shortened: as §1

Tubastatin A = compound: CN1CCc2c(c3ccccc3n2Cc2ccc(C(=O)NO)cc2)C1 [Tubastatin A]
Procedure, shortened: as §1

Measured: log2 fold change

BBX (UniProt Q8WY36)
inactive: [1] -0.247 | saracatinib -0.065 | sotrastaurin 0.095 | [2] 0.178 | [3] 0.168 | encorafenib 0.112 | [4] -0.573 | alisertib -0.158 | gefitinib 0.147

B4GALNT4 (UniProt Q76KP1)
inactive: sotrastaurin 0.013

BTBD9 (UniProt Q96Q07)
inactive: [5] 0.214 | volasertib -0.079 | [2] -0.104 | [6] 0.144

BPIFA2 (UniProt Q96DR5)
inactive: barasertib -1.07 | [1] -0.276 | [7] -0.065 | [8] -0.33 | alvocidib -0.074 | [2] -0.032 | encorafenib 0.275 | [4] 0.026 | alisertib 0.291 | gefitinib -0.296

BBS4 isoform 2 (UniProt Q96RK4)
inactive: [7] -0.131 | [8] 0.059 | saracatinib 0.139 | alvocidib -0.022 | [3] 0.037 | alisertib 0.139 | gefitinib 0.192

BPIFB1 (UniProt Q8TDL5)
inactive: [1] -0.938 | [7] 0.843 | [8] -1.06 | alvocidib -0.301 | encorafenib 0.129 | [4] 0.378 | alisertib 0.012 | gefitinib -0.008

BCL7A (UniProt Q4VC05)
inactive: [5] 0.062 | barasertib 0.033 | volasertib 0.241 | [9] 0.026 | [7] -0.325 | [8] 0.024 | saracatinib 0.048 | sotrastaurin -0.085 | alvocidib 0.032 | Tubastatin A -0.082 | [3] 0.029 | [6] -0.034

BCL2 (UniProt P10415)
inactive: barasertib 0.088 | [9] -0.001 | Tubastatin A -0.067

5 successive records out of the list so far:
BBX (UniProt Q8WY36)
inactive: [1] -0.247 | saracatinib -0.065 | sotrastaurin 0.095 | [2] 0.178 | [3] 0.168 | encorafenib 0.112 | [4] -0.573 | alisertib -0.158 | gefitinib 0.147

B4GALNT4 (UniProt Q76KP1)
inactive: sotrastaurin 0.013

BTBD9 (UniProt Q96Q07)
inactive: [5] 0.214 | volasertib -0.079 | [2] -0.104 | [6] 0.144

BPIFA2 (UniProt Q96DR5)
inactive: barasertib -1.07 | [1] -0.276 | [7] -0.065 | [8] -0.33 | alvocidib -0.074 | [2] -0.032 | encorafenib 0.275 | [4] 0.026 | alisertib 0.291 | gefitinib -0.296

BBS4 isoform 2 (UniProt Q96RK4)
inactive: [7] -0.131 | [8] 0.059 | saracatinib 0.139 | alvocidib -0.022 | [3] 0.037 | alisertib 0.139 | gefitinib 0.192

Next results:

BAZ2A (UniProt Q9UIF9)
inactive: [5] -0.25 | [1] 0.024 | volasertib -0.081 | [9] -0.021 | [7] -0.18 | [8] -0.025 | sotrastaurin -0.016 | alvocidib -0.035 | Tubastatin A -0.071 | [2] 0.102 | encorafenib 0.082 | [4] 0.224 | alisertib -0.131 | [6] 0.202 | gefitinib 0.072

BEGAIN, A0A1B0GVM0
inactive: [1] -0.063 | [9] 0.052 | sotrastaurin 0.024 | Tubastatin A 0.038 | [2] -0.158 | encorafenib 0.004 | [4] 0.037 | alisertib -0.064 | gefitinib -0.023

BTBD2 (UniProt Q9BX70)
inactive: [1] -0.027 | [7] 0.082 | [8] -0.161 | sotrastaurin 0.066 | alvocidib -0.342 | [2] 0.102 | encorafenib 0.056 | [4] -0.013

BTG3 isoform 2 (UniProt Q14201)
inactive: [1] -0.098 | [2] -0.013 | encorafenib -0.288 | [4] 0.135

BRWD1 (UniProt Q9NSI6)
inactive: [9] 0.074 | saracatinib 0.044 | sotrastaurin 0.075 | Tubastatin A 0.041 | [3] 0.075

BAIAP2 isoform 6 (UniProt Q9UQB8)
inactive: [7] 0.132 | [8] 0.125 | sotrastaurin -0.007 | alvocidib -0.027

BICRAL (UniProt Q6AI39)
inactive: [1] 0.29 | [9] -0.108 | Tubastatin A 0.198 | encorafenib -0.004 | [4] -0.142

BTG1 (UniProt P62324)
inactive: sotrastaurin 0.123

BDP1 (UniProt A6H8Y1)
inactive: [1] -0.006 | [9] -0.012 | sotrastaurin 0.008 | Tubastatin A 0.104 | encorafenib 0.013 | [4] 0.033

BTBD10 isoform 2 (UniProt Q9BSF8)
inactive: barasertib 0.353 | saracatinib -0.098 | sotrastaurin -0.025 | [3] 0.074 | alisertib 0.063 | gefitinib -0.058

BLVRA (UniProt C9J1E1)
inactive: [5] -0.083 | volasertib -0.018 | alisertib -0.052 | [6] 0.022 | gefitinib -0.3

BAHD1 (UniProt Q8TBE0)
inactive: barasertib -0.102 | [9] 0.122 | [7] -0.007 | [8] -0.076 | saracatinib 0.088 | sotrastaurin 0.04 | alvocidib -0.021 | Tubastatin A 0.011 | [3] 0.061

BMT2 (UniProt Q1RMZ1)
inactive: [7] 0.004 | [8] 0.096 | alvocidib -0.004 | alisertib 0.025 | gefitinib -0.27

BANP isoform 7 (UniProt Q8N9N5)
inactive: [1] 0.02 | [2] 0.2 | encorafenib 0.198 | [4] -0.069
